{"source": "patent US7407940B2", "about": "“Antimicrobial hexapeptides” (Helix BioMedix Inc., priority 2005, dated 2008)", "key": {"[1]": {"tested_on": "Trychophyton mentagrophytes", "test": "MIC100 against dermatophyte Trychophyton mentagrophytes", "type": "cell-based", "conditions": "T. mentagrophytes; at 10 days", "procedure": "(§1) In order to compare the activity of various antimicrobial peptides, including hexapeptide SEQ ID NO:1 (P0666), MIC were determined against the dermatophytes Trychophyton rubrum and Trychophyton mentagrophytes. The concentration of samples investigated were: 2000, 1000, 500, 250 and 125 μg/ml, respectively. The medium used was modified Sabouraud's media without agar. For a 100 mL of modified Sabouraud medium: 3 g of Sabouraud's dextrose broth (Difco) was mixed into 100 mL of deionized water. The pH was adjusted to 7.0 with 0.1 N NaOH. The solution was autoclaved for thirty minutes. 940 μL of medium was poured into sterile 20 mL test tubes with plastic caps and was allowed to cool.\n(§2) 50 μL of […] was added to each 20 mL test tube to make the required concentration. A control tube was composed of 50 μL of saline without sample. For the MIC experiments,\n(§3) 10 μL of organism suspended in saline was added to the each 20 mL test tube and vortexed slightly. Each of the test tubes was covered in parafilm and maintained on a shaker at 27° C. at a speed of approximately 100 rpm.\n(§4) The growth/inhibition of the organism was observed on a daily basis. […] The Minimum Inhibition Concentration (MIC100) for compounds F1 to F10 against fungus Trychophyton rubrum and Trychophyton mentagrophytes at 10 days."}, "MRSA": {"tested_on": "MRSA", "test": "Kill curve in 10% sheep serum-phosphate buffer against MRSA", "type": "cell-based, S. aureus", "design": "unit not given here", "conditions": "0.5 mg/ml (medium not given)"}, "P. acnes": {"tested_on": "P. acnes", "test": "Activity against extended panel of P. acnes", "type": "cell-based", "design": "unit not given here", "text": "A very promising application for short bioactive peptides is for dermatological indications such as acne."}, "[2]": {"test": "Calcein release from liposomes mimicking bacterial cells", "conditions": "POPC:POPG, 3:1; peptide at 2 ug/ml"}, "Trychophyton rubrum": {"tested_on": "Trychophyton rubrum", "test": "MIC100 against dermatophyte Trychophyton rubrum", "type": "cell-based", "conditions": "T. rubrum; at 10 days", "procedure": "as §1, §2, §3, §4"}}, "note": "At least one peptide structure holds a part that was inferred or is arguable (an end, a ring closure or a residue)."}
{"smiles": "CC(C)C[C@H](NC(=O)[C@H](C)NC(=O)[C@H](CC(C)C)NC(=O)[C@H](CCCCN)NC(=O)[C@H](C)NC(=O)[C@H](CC(C)C)NC(=O)[C@H](CCCCN)NC(=O)[C@H](CCCCN)NC(=O)[C@H](C)NC(=O)[C@H](CC(C)C)NC(=O)[C@H](CCCCN)NC(=O)[C@H](C)NC(=O)[C@H](CC(C)C)NC(=O)[C@H](CCCCN)NC(=O)[C@H](CCCCN)NC(=O)[C@H](C)NC(=O)[C@@H](N)C(C)C)C(N)=O", "note": "[SEQ ID NO: 88, VAKKLAKLAKKLAKLAL-NH2]", "values": [{"measurement": "MIC100", "setting": "[1]", "result": 500, "unit": "µg/mL"}, {"measurement": "MRSA count in kill curve", "setting": "MRSA; 30 min", "result": 38100}, {"measurement": "MRSA count in kill curve", "setting": "MRSA; 1 hour", "result": 37800}, {"measurement": "MRSA count in kill curve", "setting": "MRSA; 2 hours", "result": 13340}, {"measurement": "MRSA count in kill curve", "setting": "MRSA; 3 hours", "result": 12410}, {"measurement": "MRSA count in kill curve", "setting": "MRSA; 4 hours", "result": 13920}, {"measurement": "MRSA count in kill curve", "setting": "MRSA; 5 hours", "result": 11970}, {"measurement": "Activity (MIC) against P. acnes", "setting": "P. acnes; ATCC 6921", "result": 4}, {"measurement": "Activity (MIC) against P. acnes", "setting": "P. acnes; ATCC 6922", "result": 8}, {"measurement": "Activity (MIC) against P. acnes", "setting": "P. acnes; ATCC 6923", "result": 16}, {"measurement": "Activity (MIC) against P. acnes", "setting": "P. acnes; ATCC 11828", "result": 4}, {"measurement": "Activity (MIC) against P. acnes", "setting": "P. acnes; ATCC 12930", "result": 2}, {"measurement": "Activity (MIC) against P. acnes", "setting": "P. acnes; ATCC 25746", "result": 0.125}, {"measurement": "Activity (MIC) against P. acnes", "setting": "P. acnes; ATCC 29399", "result": 8}, {"measurement": "Activity (MIC) against P. acnes", "setting": "P. acnes; ATCC 33179", "result": 16}, {"measurement": "Activity (MIC) against P. acnes", "setting": "P. acnes; ATCC 49929", "result": 0.25}, {"measurement": "Activity (MIC) against P. acnes", "setting": "P. acnes; ATCC 51277", "result": 16}, {"measurement": "calcein release from liposomes", "setting": "[2]", "result": "caused dye (cacein) to be released"}, {"measurement": "MIC100", "setting": "Trychophyton rubrum", "result": 500, "unit": "µg/mL"}]}
